Source: PubChem BioAssay AID1508600 (Functional Genomics Laboratory (NCATS/FGL), 2020)
About 3,700 (7%) of roughly 53,000 sequences were called active.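 Rule for the calls: active = gene knockdowns whose robust z-score for IL-1 alpha signal is at least 2 or at most -2, so actives lie on both sides; inactive = the rest.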 The list shows a part of the results.

assay: Components of the Cytosolic LPS Sensing Pathway: Gene Identification via Genome-wide siRNA Screen; settings: RAW264.7 macrophages, IL-1a HTRF, actives lie on both sides, screened at 100 nM (by protocol), cells primed 5 h with Pam3CSK4 first;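 note: robust z of the log signal after scaling to non-targeting control siRNA wells of the plate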
In short: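 Knockdown: 100 nM siRNA, 48h, RAW264.7. Stimulation: Pam3CSK4 5 h, then LipidA via TransIT-TKO 24 h. Output: supernatant IL-1a HTRF, negative-control-normalized, log robust z-score; viability by CellTiter-Glo.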

Sequence | z-score
GCUCUUUUAACGUAAUGGGTT against Cpe | inactive: -1.02
CCAAUGUUGGCAUUAUGUUTT against Fah | inactive: -0.354
GGUGGAUACAGUGUACACUTT against Cldn13 | inactive: 0.207
GGAGCAUGAGUAUUACAAUTT against Pi16 | inactive: 0.969
GGAGAAGAUUGUAAAGGGCTT against Lig3 | inactive: 0.211
CCAUAGCUCUGGAAUGGUGTT against Kcnt1 | active: -2.59
GGUUAGAGGGAGAAGUGAATT against Polr2m | inactive: -0.807
GUAGAAGAUGGAAUUUUUGTT against Rpl22l1 | inactive: 0.048
GGAUUCAGAAGGCCUCAGUTT against Olfr399 | inactive: 0.132
GGUUCUGAGUCUUAUCUUCTT against Sult5a1 | inactive: 0.542
GGUUCAAGGGCCAGAUCCUTT against Rpl32 | inactive: 0.887
GCUCAACUUGGAAUUGGAGTT against Arhgap29 | active: 2.28
CCUGGAGUUAGUUUGACAGTT against Atf4 | inactive: -0.042
GGCAAACUUAUCUUCUUCUTT against Ahsa1 | inactive: -1.89
GGCAAGAUCCUAGCAUCCGTT against Rad54l2 | inactive: 0.00343
CGGGUGCUAAAAUGUCUAUTT against Khdrbs2 | active: 2.81
GGAGUCAGACUGAUGUCAUTT against Cdipt | inactive: 0.327
GCUUCGAAGCAACAUCCGATT against Rims3 | inactive: -0.00729
GGAGUUUCCACAAGACCUGTT against Csrp3 | inactive: -0.153
GGCCGUGUACAACAACUUCTT against Tshz3 | inactive: 0.254
GCAGCCGAUUAUCAGCGAATT against Cyp7b1 | inactive: 0.649
GCGACACCUUUUUUUGGGATT against Ppp1r3c | inactive: -0.78
GCUCGAGCUUUAUUUAAAUTT against Adarb1 | inactive: 0.302

Sequence | z-score
CCAAUUAUCACUUUAGACUTT against Zfp652 | inactive: 0.118
CCGCAUCCUAAGUUUUAAATT against Gm4827 | inactive: -0.958
GCGACUGUUCGGUGGUACATT against Tmem191c | inactive: 0.00701
GGUGUCAGUGAAGGCGAAATT against H1f1 | inactive: 0.354
CGAAGGAGAUUCCGAUAAATT against Arl5c | inactive: 1.55
GGCCAAGAAUGAUCGUUCUTT against Gabrb3 | inactive: 0.00587
GCUAAUCGAAGUUGAAAUUTT against Soga3 | inactive: -0.316
CCAAUACCUGCAAGACCUGTT against Ddx49 | inactive: 0.458
GGAGGAAAGUAUGAAGAAATT against Cyp2j9 | inactive: -0.337
CCCGGAAAAUUGUAUUGGATT against Klhl6 | inactive: 0.42
GCUUCCUAACUUGAAAGCATT against Etos1 | inactive: -0.33
GGAGAUUGACAUUAGCAACTT against Rps6ka2 | active: 3.02
GCCAAAAUUUCUCUAGCAUTT against Olfr1445 | inactive: -0.247
CCGUUUAUGACAAUGGCGUTT against Tub | inactive: -0.249
GGGACGAGAUUGAAGAAGATT against Snx2 | inactive: -0.104
GCCCGAGGCAUUGAAUUUGTT against Tmem147 | inactive: 1.5
GGCCUCAAGAACUUUUUGCTT against Cntrob | inactive: -0.339
CGACACUCCGAUCGUCAAGTT against Grm4 | inactive: -1.07
GGCUUAAAGGUCCUGUGCUTT against Ighmbp2 | active: -2.89
GCACUCACACAUUAAGAGATT against Tmem79 | inactive: -0.355
GCUAGAGCUCACCAAAUAATT against Fam83a | inactive: 0.759
GGAGAGCAAGGAGAACCAATT against Itga7 | inactive: 1.35
CCUAUAUGACAAAAGACAGTT against Glra2 | inactive: -0.168

Another view of some results above.
Sequence	z-score
CCAAUUAUCACUUUAGACUTT against Zfp652	inactive: 0.118
GCGACUGUUCGGUGGUACATT against Tmem191c	inactive: 0.00701
GGUGUCAGUGAAGGCGAAATT against H1f1	inactive: 0.354
CGAAGGAGAUUCCGAUAAATT against Arl5c	inactive: 1.55
GGCCAAGAAUGAUCGUUCUTT against Gabrb3	inactive: 0.00587
CCCGGAAAAUUGUAUUGGATT against Klhl6	inactive: 0.42
GCUUCCUAACUUGAAAGCATT against Etos1	inactive: -0.33
GGAGAUUGACAUUAGCAACTT against Rps6ka2	active: 3.02
GCCAAAAUUUCUCUAGCAUTT against Olfr1445	inactive: -0.247
GGGACGAGAUUGAAGAAGATT against Snx2	inactive: -0.104
GCCCGAGGCAUUGAAUUUGTT against Tmem147	inactive: 1.5
GGCCUCAAGAACUUUUUGCTT against Cntrob	inactive: -0.339
CGACACUCCGAUCGUCAAGTT against Grm4	inactive: -1.07
GCACUCACACAUUAAGAGATT against Tmem79	inactive: -0.355
CCUAUAUGACAAAAGACAGTT against Glra2	inactive: -0.168

Going on with the list.

Sequence | z-score
CCUGAGACCGAAUUUUACCTT against Cer1 | inactive: -0.209
GGAUCCUGUGGCUAAAGAGTT against Zc3h12a | inactive: -0.606
CCAGCCAUAUCAACCGUAUTT against Lzts3 | inactive: 0.084
GGAUUUGACCAGUAUAAGUTT against Ptgs2 | inactive: -1.05
GCCAUGUUUCUACUGAUAGTT against Fam24b | inactive: 1.15
GGAAAAUCUGGAGUUCUUCTT against Npas1 | inactive: 1.3
GCCCAAAAAGGAAUUAAUUTT against Pak3 | inactive: -0.176
GCCCAUAUGAUCACAGUCGTT against Ptpn2 | inactive: -1.32
GGAAUCUCCAUUUGUAUUGTT against Calml3 | inactive: 0.0364
GGAUCACUUGAUUGAUCCUTT against Slc15a3 | inactive: -0.292
GCAAACUGCGCAGUUCUUGTT against Gad1 | inactive: 1.33
GGAAAAUGGAGAACUAAAGTT against Uxs1 | inactive: 1.88
CGAUGAUACAGUUUAUCUCTT against Pon2 | inactive: -0.766
GGAUGAGGAUUUUGAGAACTT against Arhgef1 | inactive: 0.132
GCCUGAACAGCCUUGAAUUTT against Hhatl | inactive: 0.702
GCCAGUGUGACAUUUGGUATT against Eed | inactive: 0.651
GGAGCAUCCUGGCAAACAGTT against Slc51b | inactive: -1.32
GUGCACGAUCUGAUUGGUGTT against Pfn3 | inactive: -0.744
GGAGAAAAAGCACCAAUGUTT against Plag1 | inactive: 0.821
GGUUUCAUCUGUUGGAAUUTT against Meis1 | inactive: 0.5
GCACCUAACAAGUACUAAATT against Mob4 | inactive: 1.14
GGCAGCAGCAACAGCAGAATT against Slc36a3 | inactive: -0.678
